The results in this text go back to PubChem BioAssay AID651660 (Broad Institute, 2012).

By UniProt entry, the sequences of proteins in these tests, tags left out. Where a name states a change or a piece, a line headed by the entry shows the natural chain unless it says otherwise.
UniProt P43351: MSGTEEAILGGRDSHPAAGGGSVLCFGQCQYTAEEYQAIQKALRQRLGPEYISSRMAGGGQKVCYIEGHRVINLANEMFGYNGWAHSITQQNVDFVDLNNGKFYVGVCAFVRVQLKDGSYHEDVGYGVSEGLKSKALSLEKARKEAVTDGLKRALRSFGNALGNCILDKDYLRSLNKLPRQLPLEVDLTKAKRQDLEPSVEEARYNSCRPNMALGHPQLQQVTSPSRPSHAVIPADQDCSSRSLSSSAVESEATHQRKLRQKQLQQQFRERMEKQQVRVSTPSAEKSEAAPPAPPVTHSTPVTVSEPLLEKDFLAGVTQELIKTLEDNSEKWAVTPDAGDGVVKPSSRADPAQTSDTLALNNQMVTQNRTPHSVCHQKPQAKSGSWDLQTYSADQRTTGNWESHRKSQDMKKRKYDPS

Out of some 1,900 compounds screened, about 15 (0.8%) were called active.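 How the source made its calls: active means every replicate shows at least 50% inhibition; inconclusive means mean inhibition at least 50% but some replicate below; inactive means the rest.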 This is one part of the list.

The target of this assay is DNA repair protein RAD52 homolog (Homo sapiens) (UniProt P43351). The experiment in a line: RAD52 ssDNA annealing inhibitors, primary screen, biochemical, FRET, single point (AID 651660).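 Further: 0% = median of neutral control wells and 100% = median of positive control wells.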 The conditions noted are these: Recombinant RAD52 ssDNA annealing, FRET fluorescence, 30 min; at 18.7 µM; active compounds read high.
For `O=C(O)C1[C@H]2C(=O)N(C3CCCC3)C[C@]23C=C[C@H]1O3` (some centres not stated), the inhibition is inactive: 8.01%. On to `C#CCN(C)Cc1ccccc1`, for which the inhibition was inactive: -3.73%. The result for `O=c1c2ccccc2nnn1Cc1cccc2ccccc12` reads inactive: 12.3%; that for `COc1ccc2cc(CCC(C)=O)ccc2c1`, inactive: 2.8%; that for `CC(=O)N(CCC(Cc1ccccc1)c1ccc2c(c1)OCO2)Cc1ccc(Cl)cc1` (configuration not stated), inactive: 16.3%. Then `CCn1cc(C(=O)O)c(=O)c2ccc(C)nc21`, with inactive: -11.8%. With `O=C(O)c1ccccc1OCCOc1ccccc1`, the inhibition was inactive: -5.9%.

Turning to `COc1ccc2oc(=O)c(C(=O)Nc3ccccc3-c3ccccc3)cc2c1`, the inhibition was inactive: 13.8%. As for `CCN(CC)CCNC(=O)c1cc(S(C)(=O)=O)ccc1OC`, the inhibition is inactive: -0.689%. `CN/C(=C/[N+](=O)[O-])NCCSCc1ccc(CN(C)C)o1`: the inhibition was inactive: -14.2%.

Regarding `COc1cc2oc(-c3ccc(O)cc3)cc(=O)c2c(OC)c1O`, the inhibition was inactive: 31.7%. `O=C(CCCN1CC=C(n2c(=O)[nH]c3ccccc32)CC1)c1ccc(F)cc1`: the inhibition was inactive: 2.05%.

For the compound `C=CCn1c(SCC(=O)NC2CCCCC2)nc2ccccc2c1=O`, the inhibition was inactive: -8.73%. With `CCc1cc2c(=O)c(-c3nc(C)cs3)coc2cc1OC(C)C(=O)NCCO` (configuration not stated), the inhibition was inactive: -3.26%. For `O=C1CC[C@@H](CN(Cc2ccccc2)Cc2cn[nH]c2-c2cc3ccccc3o2)N1`, the inhibition was inactive: 3.78%. The result for `O=C(O)c1ccc(C(=O)C(=O)c2ccccc2)cc1` reads inactive: -5.42%. Regarding `COc1ccc(CCN2CCC(Nc3nc4ccccc4n3Cc3ccc(F)cc3)CC2)cc1`, the inhibition was inactive: -68.5%.

Take `Cc1ncc([N+](=O)[O-])n1CCO`: the inhibition is inactive: 1.81%. For the compound `O=C(COc1ccc(F)cc1)OCCN1CCOCC1`, the inhibition is inactive: -9.42%. In the case of `CCN(CC)CC#CCOC(=O)C(O)(c1ccccc1)C1CCCCC1` (configuration not stated), the inhibition is inactive: 5.52%. As for `CCN1CCN(C(=S)c2ccc(OC)cc2)CC1`, the inhibition is inactive: 1.54%. Then `O=C1Cc2ccccc2C(c2ccccc2)N1` (configuration not stated), with inactive: -8.11%. The result for `O=C(/C=C/c1ccccc1)c1ccccc1` reads inactive: -6.91%. For `Cn1cc(CN2CCN(CCO)CC2)c(-c2ccc(Oc3ccccc3)cc2)n1`, the inhibition is inactive: 9.9%. On to `Cc1nc(NC(CC(C)C)C(=O)O)c2nc(C)oc2n1` (configuration not stated), for which the inhibition was inactive: -2.86%. As to `O=C(Nc1ncc2c(n1)CC(c1ccco1)CC2=O)c1ccco1` (configuration not stated), the inhibition was inactive: -27%. Consider `COC(=O)c1[nH]c2ccc(C)cc2c1NC(=O)CN1CCc2cc(OC)c(OC)cc2C1`, for which the inhibition was inactive: 1.42%. Then `COc1ccc(-c2[nH]ncc2C=O)cc1OC`, with inactive: 9.17%. In the case of `COc1ccc(-c2noc(-c3ccccc3-c3ccccc3)n2)cc1`, the inhibition is inactive: 2.09%. Consider `COc1ccc(C2CNC(=O)C2)cc1OC1CCCC1` (configuration not stated), for which the inhibition was inactive: 3.78%.

Take `COc1cccc2c(=O)c(C/C=C(/C)Cl)c(C)[nH]c12`: the inhibition was inactive: -6.28%. As to `CC(C)c1ccc(/C=C/C(=O)O)cc1`, the inhibition is inactive: -7.81%. As for `Cc1nc(-c2coc3c(CN(C)C)c(O)ccc3c2=O)cs1`, the inhibition is inactive: 5.53%.

As to `N#Cc1c2c(c(-c3ccccc3)[nH]c1=O)CCCC2`, the inhibition was inactive: -7.57%.

Turning to `Cc1ccc(C(=O)N2CC3(C(C)C)CN(C(=O)c4ccc(C)cc4)CC(C(C)C)(C2)C3=O)cc1`, the inhibition was inactive: 0.667%. On to `CCOc1cccc(N2C(=O)CC(N(CCc3ccc(OC)c(OC)c3)C(=O)CC)C2=O)c1` (configuration not stated), for which the inhibition is inactive: -4.04%. For the compound `CCC(=O)O[C@]1(C(=O)CCl)[C@@H](C)C[C@H]2[C@@H]3CCC4=CC(=O)C=C[C@]4(C)[C@@]3(F)[C@@H](O)C[C@@]21C`, the inhibition was inactive: 25.4%.

`O=C1OCCN1/N=C/c1ccc([N+](=O)[O-])o1`: the inhibition was inactive: -8.97%. For `COc1ccc(CCN(C)CC(=O)Nc2cc(C)nc3ccccc23)cc1OC`, the inhibition was inactive: -1.66%. Regarding `COc1ccc(NC2=C(Cl)C(=O)N(c3ccccc3)C2=O)c(OC)c1`, the inhibition was inactive: 15.8%. Turning to `CCN(CCCCCN(C)C)Cc1cc2ccccc2o1`, the inhibition is inactive: -1.51%. On to `COc1ccc(NC(=O)C2CSC3c4ccccc4C(=O)N23)cc1` (configuration not stated), for which the inhibition is inactive: 2.73%.

For the compound `CN(C)c1nc(N(C)C)nc(N(C)C)n1`, the inhibition was inactive: 3.34%.

For the compound `O=C(CCc1c[nH]c2ccccc12)NCc1ccco1`, the inhibition is inactive: 0.815%. On to `COC(=O)CSc1nc2ccc(N)cc2s1`, for which the inhibition is inactive: 3.86%. Then `Cc1ccc2nc(C)c3c(c2c1)OC(C(C)(Cl)Br)C3` (configuration not stated), with inactive: 3.5%; and `Nc1ccc2[nH]ncc2c1`, with active: 59.5%. As to `NNC(=O)c1cc(O)c(O)c(O)c1`, the inhibition is inactive: 30.2%. As for `C=C(C)COc1ccc(-c2nc(N)ncc2-c2ccc(OC)cc2)c(O)c1`, the inhibition is inactive: 22.9%. Consider `Cc1ccc(S(=O)(=O)N2CCC(C(=O)N[C@@H](C)C(=O)NC3CCS(=O)(=O)C3)CC2)cc1` (some centres not stated), for which the inhibition was inactive: 0.33%.

Regarding `O=C(O)c1cc(-c2ccccc2)nc2ccccc12`, the inhibition is inactive: -18.5%. On to `CC(=O)O[C@]1(C(C)=O)CC[C@H]2[C@@H]3C[C@H](C)C4=CC(=O)CC[C@]4(C)[C@H]3CC[C@@]21C`, for which the inhibition was inactive: 3.67%. `C[C@H]1C[C@@H]2[C@H]([C@@H](O)C[C@@]3(C)[C@H]2CC[C@]3(O)C(=O)CO)[C@@]2(C)C=CC(=O)C=C12`: the inhibition was inactive: -9.66%. Consider `CCOC(=O)N1CCN(Cc2nc(Cc3cccc(F)c3)no2)CC1`, for which the inhibition is inactive: -2.4%. As for `COc1ccc(NC(=O)Nc2ccc(C(C)C)cc2)cc1`, the inhibition is inactive: -5.3%.

On to `O=C1[C@@H]2[C@H](Cc3ccc(O)cc3)N[C@]3(C(=O)Nc4ccccc43)[C@@H]2C(=O)N1c1ccc(F)cc1`, for which the inhibition is inactive: 1.15%. With `COC(=O)c1ccc(-c2ncc(-c3cccc4ccccc34)o2)cc1`, the inhibition is inactive: -4.15%.

Regarding `O=C(Nc1ccccc1C(=O)N1CCCCCC1)c1ccccc1Cl`, the inhibition was inactive: -8.31%. Take `CCCNCC(O)COc1ccccc1C(=O)CCc1ccccc1` (configuration not stated): the inhibition was inactive: 17.1%.

As for `CC12CCC(C(=O)NCc3ccccn3)(OC1=O)C2(C)C` (configuration not stated), the inhibition was inactive: -7.18%.

With `O=[N+]([O-])c1cccc2cn[nH]c12`, the inhibition was inactive: 4.4%. Then `CN1CCc2c(n(CC(O)CN(CCO)CCO)c3ccccc23)C1=O` (configuration not stated), with inactive: 11.3%.
